The record followed here is publication PMC5566719.

Sequences of proteins named here, by UniProt entry; tags and fusion partners are left off.
UniProt Q9HAU4: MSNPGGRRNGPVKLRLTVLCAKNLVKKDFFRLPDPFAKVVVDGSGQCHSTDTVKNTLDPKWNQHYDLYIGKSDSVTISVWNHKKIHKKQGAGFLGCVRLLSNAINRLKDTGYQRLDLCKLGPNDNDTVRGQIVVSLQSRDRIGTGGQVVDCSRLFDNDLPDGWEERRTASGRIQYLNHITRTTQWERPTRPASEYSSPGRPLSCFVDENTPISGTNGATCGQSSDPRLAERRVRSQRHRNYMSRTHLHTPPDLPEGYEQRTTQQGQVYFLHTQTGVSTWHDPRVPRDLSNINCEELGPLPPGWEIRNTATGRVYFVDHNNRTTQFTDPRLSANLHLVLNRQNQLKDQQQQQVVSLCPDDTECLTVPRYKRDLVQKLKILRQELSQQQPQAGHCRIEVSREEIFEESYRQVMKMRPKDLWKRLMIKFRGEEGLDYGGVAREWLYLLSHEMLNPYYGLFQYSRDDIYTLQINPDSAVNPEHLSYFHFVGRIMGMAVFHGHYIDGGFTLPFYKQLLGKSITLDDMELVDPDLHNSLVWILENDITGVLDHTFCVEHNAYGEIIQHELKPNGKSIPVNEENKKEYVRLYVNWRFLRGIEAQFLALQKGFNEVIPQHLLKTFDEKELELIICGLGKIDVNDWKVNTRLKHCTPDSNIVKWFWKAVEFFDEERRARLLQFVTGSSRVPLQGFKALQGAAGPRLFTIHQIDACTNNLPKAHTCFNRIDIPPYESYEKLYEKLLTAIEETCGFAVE

Assay [1] concerns the target T1, Flag-HA-TRAF4 WT (UniProt Q9BUZ4).
T1 sequence (chain, K63-linkage poly-ubiquitination after irradiation (sites not stated)): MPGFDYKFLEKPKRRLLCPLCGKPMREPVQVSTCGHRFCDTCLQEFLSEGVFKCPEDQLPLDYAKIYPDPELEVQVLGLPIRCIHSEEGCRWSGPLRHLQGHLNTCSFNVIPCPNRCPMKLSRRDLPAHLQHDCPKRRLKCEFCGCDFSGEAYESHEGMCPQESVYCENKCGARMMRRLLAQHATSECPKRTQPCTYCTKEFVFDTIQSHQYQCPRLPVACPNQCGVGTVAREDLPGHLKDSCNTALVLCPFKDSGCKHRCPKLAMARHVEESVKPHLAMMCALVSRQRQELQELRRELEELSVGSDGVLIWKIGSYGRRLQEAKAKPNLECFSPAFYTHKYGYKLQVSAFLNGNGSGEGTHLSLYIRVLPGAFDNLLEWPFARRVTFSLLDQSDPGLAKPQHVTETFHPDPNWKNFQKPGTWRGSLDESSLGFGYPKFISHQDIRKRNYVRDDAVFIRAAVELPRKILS
Briefly: co-IP; normal lung fibroblasts, with or without irradiation; IP assay of Supplementary Fig. 1 (antibody and constructs not told in the text shown).

Assay [2] has as its target T1, Flag-HA-TRAF4 WT. Put plainly: co-IP; normal lung fibroblasts transfected with mock, Flag-HA-TRAF4 WT or dR, with or without irradiation (2 Gy); lysates precipitated with anti-Flag antibody and protein G-agarose, Western blotting. (In general: Immunoblotting shows a protein as a band on a membrane.)

No constants are given. Whether binding was seen depends on the method and setting. In cells and extracts the contact can be indirect. Some results given as binding are weak or reduced against the parent protein; the word gives no strength. Sequences can lack the tags named with a protein.

Turning to “SMURF2 (from UniProt Q9HAU4 1-748) (enzyme)”, the binding result in assay [1] is on record as “binds”.

B1: TβRI (receptor, UniProt P36897 34-503)
chain: LQCFCHLCTKDNFTCVTDGLCFVSVTETTDKVIHNSMCIAEIDLIPRDRPFVCAPSSKTGSVTTTYCCNQDHCNKIELPTTVKSSPGLGPVELAAVIAGPVCFVCISLMLMVYICHNRTVIHHRVPNEEDPSLDRPFISEGTTLKDLIYDMTTSGSGSGLPLLVQRTIARTIVLQESIGKGRFGEVWRGKWRGEEVAVKIFSSREERSWFREAEIYQTVMLRHENILGFIAADNKDNGTWTQLWLVSDYHEHGSLFDYLNRYTVTVEGMIKLALSTASGLAHLHMEIVGTQGKPAIAHRDLKSKNILVKKNGTCCIADLGLAVRHDSATDTIDIAPNHRVGTKRYMAPEVLDDSINMKHFESFKRADIYAMGLVFWEIARRCSIGGIHEDYQLPYYDLVPSDPSVEEMRKVVCEQKLRPNIPNRWQSCEALRVMAKIMRECWYANGAARLTALRIKKTLSQLSQQEGIKM
For B1, the binding entry in assay [1] is reported as “binds”.

B2: endogenous TRAF4 (protein, UniProt Q9BUZ4 1-470)
chain: T1 sequence (chain, K63-linkage poly-ubiquitination after irradiation (sites not stated))
With B2, the binding result in assay [2] is “binds”.
